Test results: PubChem BioAssay AID2685 (National Center for Advancing Translational Sciences (NCATS), 2010)
Among all 320,000 compounds or so, about 2,100 (0.66%) were called active. The inconclusive results got no clear call from the source; some entries with a clear call stand among them for comparison. The call rests on the fitted dose curve; in most records, active means well fitted inhibition curve with a large enough effect in the signal ratio, with a control signal flat (not every such curve was filed as active); inconclusive means small, poorly fitted or top-dose-only effect, or effect the other way, or a change in a side signal; inactive means flat fitted curve, though single readings scatter; the % refers to the signal ratio. Where the call is inconclusive, the potency comes from a doubtful curve fit.

assay: qHTS Assay for Lipid Storage Modulators in Drosophila S3 Cells; settings: BODIPY lipid droplet fluorescence, 18-24 h, cells fed with added oleic acid; lipid storage change, negative = inhibition: at 46.1 µM (top of the series) unless noted
Method in brief: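 Drosophila S3 cells loaded with oleic acid (400 uM, as added) and compounds at several concentrations; lipid droplets imaged by 488-nm laser-scanning cytometry, 500–530 nm intensity and object ratio to cell channel. Percent activity normalized to 20 uM Triacsin C.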
On the % scale 0 is the no-effect control and ±100 the full control effect; potency means the concentration at half of the fitted maximal effect.

| SMILES | Potency | lipid storage change, negative = inhibition |
| --- | --- | --- |
| Cc1ccc(C)c(NC(=O)CN(C)C(=O)C2CCCC2)c1 | inconclusive: 0.92 µM [falling, full curve] |  |
| O=C1c2ccccc2-c2cccc(C(=O)N3CCCCCC3)c21 |  | inconclusive: 14.9% |
| Cc1ccc(CSc2nnc(SCC(=O)N/N=C/C=C/c3ccco3)s2)cc1 |  | inconclusive: 9.59% |
| O=C(COC(=O)c1ccccc1Oc1ccccc1)NC1CCS(=O)(=O)C1 (centres undefined) |  | inconclusive: 0.596% |
| O=C(O)c1ccccc1C(=O)NNc1ccc(F)cc1 |  | inconclusive: 48.1% |
| CCC(=O)OCC(=O)Nc1ccc2c(c1)OCO2 |  | inconclusive: 12.2% |
| Cn1c(Oc2ccccc2NCc2cccc(Br)c2)cc(=O)n(C)c1=O |  | inconclusive: -9.69% |
| O=C(NCC(=O)N(c1ccc(Cl)cc1)C(C(=O)NC1CCCC1)c1ccncc1)c1ccco1 (centres undefined) |  | inconclusive: -7.54% |
| O=C(Cn1nnc(-c2ccccc2NC(=O)c2ccccc2F)n1)NCc1ccco1 | inconclusive: 0.291 µM [activator, full curve, poor fit] |  |
| CCOc1ccc(NC(=O)c2ccc(Br)o2)c([N+](=O)[O-])c1 |  | inconclusive: -28.8% |
| CC1(C)C2CCC(C2)C1(C)NC(=O)CNC1CCCCC1 (centres undefined) |  | inactive |
| CCc1ccc(OCC(=O)N2CCc3ccccc32)cc1 | inconclusive: 29.1 µM [activator, single point] |  |
| CCc1ccccc1NC(=O)c1ccc(S(=O)(=O)NCC2CCCO2)cc1 (centres undefined) |  | inconclusive: -3.48% |
| COCCN(CCOC)C(=O)COC(=O)c1cc([N+](=O)[O-])ccc1Cl |  | inconclusive: 4.26% |
| COc1ccc(N2CCN(C(=O)CNC(=O)Cc3ccccc3)CC2)cc1 | inconclusive: 29.1 µM [falling, single point] |  |
| CCOc1cc(N2CCOCC2)c(OCC)cc1NC(=O)c1cc(C)cc(C)c1 |  | inconclusive: 13.3% |
| Cc1ccc(S(=O)(=O)N2[C@@H](c3ccc(F)cc3)C(C(=O)O)=CC[C@H]2c2ccc3c(c2)OCO3)cc1 | inconclusive: 14.6 µM [activator, partial curve] |  |
| CN(C(=O)c1ccc(F)c(S(=O)(=O)N2CCOCC2)c1)C1CCCCC1 |  | inactive |
| COc1ccc(C(=O)NC(=S)Nc2cc(C)ccn2)cc1[N+](=O)[O-] | inconclusive: 1.64 µM [rising, full curve] |  |
| CC(C)(C)c1ccc(O)c(N=Cc2cc3c(cc2[N+](=O)[O-])OCO3)c1 |  | inconclusive: -9.15% |
| Cc1noc(C)c1COc1cccc(C(=O)OCC(=O)NC(=O)c2ccc(OC(F)F)cc2)c1 |  | inconclusive: 17.2% |
| CN(C(=O)c1ccccc1C(=O)OCC(=O)NC(=O)NC(C)(C)C)C1CCCCC1 |  | inconclusive: -5.88% |
| O=C(c1cc(COc2c(F)cccc2F)on1)N1CCN(C2CCCCC2)CC1 |  | inconclusive: 30.6% |
| CSCCC(NC(=O)c1ccc(Cl)cc1)C(=O)OCC(=O)c1ccc[nH]1 (centres undefined) | inconclusive: 9.2 µM [activator, partial curve, poor fit] |  |
| O=C(COc1ccc(-c2nnco2)cc1)N1CCN(S(=O)(=O)c2ccccc2)CC1 | inconclusive: 1.46 µM [activator, full curve] |  |

Some of the entries so far, with tabs.
SMILES	Potency	lipid storage change, negative = inhibition
Cc1ccc(S(=O)(=O)N2[C@@H](c3ccc(F)cc3)C(C(=O)O)=CC[C@H]2c2ccc3c(c2)OCO3)cc1	inconclusive: 14.6 µM [activator, partial curve]	
CN(C(=O)c1ccc(F)c(S(=O)(=O)N2CCOCC2)c1)C1CCCCC1		inactive

Later entries

| SMILES | Potency | lipid storage change, negative = inhibition |
| --- | --- | --- |
| CCCCNC(=O)O[C@H]1C[C@@H]2CCN3C(=O)CCC(C)(C)[C@H](C1)[C@H]23 | inconclusive: 18.4 µM [falling, single point] |  |
| CCSc1nnc(-c2ccncc2)n1Cc1ccccc1 | inconclusive: 1.46 µM [activator, partial curve, poor fit] |  |
| Cc1c(OCC(N)=O)ccc2c(-c3ccccc3)cc(=O)oc12 |  | inconclusive: -8.39% |
| CN(C)C(=O)Cn1cnc2c(cnn2-c2ccccc2Cl)c1=O |  | inconclusive: 9.02% |
| COc1ccc(-c2cc(C(=O)N3CCN(c4ccc(F)cc4)CC3)no2)cc1 | inconclusive: 29.1 µM [falling, single point] |  |
| CCN1CCN(CC(O)COc2ccc(C(C)=O)cc2)CC1 (centres undefined) |  | inconclusive: -9.49% |
| O=C(CSCc1ccccc1)Nc1cccc(C(=O)Nc2ccccc2C(=O)O)c1 |  | inconclusive: 16.7% |
| CC(Sc1nnc(-c2cccnc2)o1)C(=O)NC1CCCC1 (centres undefined) | inconclusive: 0.146 µM [activator, full curve, poor fit] |  |
| CCCCc1ccc(CC(=O)O)cc1 |  | inconclusive: -29.5% |
| Cc1nn(C(C)C(=O)c2cccc(Cl)c2)c(C)c1[N+](=O)[O-] (centres undefined) |  | inconclusive: -56.5% |
| CN(C)c1nc(N)nc(CSc2n[nH]c(-c3ccccc3)n2)n1 | inconclusive: 5.8 µM [activator, full curve] |  |
| N#Cc1nc(COc2ccc(Cl)cc2)oc1N1CCCC1 | active: 23.1 µM |  |
| Cc1cccc(-n2c(SCc3ccc(C#N)cc3)nnc2-c2c[nH]c3ccccc23)c1 |  | inconclusive: 142% |
| Cc1cc(C(=O)OCC(=O)NCc2cccs2)c2ccccc2n1 | inconclusive: 6.51 µM [rising, partial curve, poor fit] |  |
| COc1cccc2[nH]c3c(N4CCCC(C)C4)ncnc3c12 (centres undefined) |  | inconclusive: -1.51% |
| Cc1ccc(C(=O)N/N=C/c2nc3ccccc3n2C)cc1 |  | inconclusive: 24.1% |
| COC(=O)c1cc(Br)c(=O)n(CCN2CCCCC2)c1 |  | inconclusive: -9.65% |
| CCc1nc2ccccc2n(CCOCCOCCn2c(=O)c(CC)nc3ccccc32)c1=O | inconclusive: 0.731 µM [activator, full curve, poor fit] |  |
| O=C(Nc1cccc(Br)c1)c1ccc2c(c1)SC1=NS(=O)(=O)CCN12 | inconclusive: 6.51 µM [falling, single point] |  |
| COC(=O)c1nn(-c2ccccc2)c(=O)cc1Sc1ccc(Cl)cc1 |  | inconclusive: -1.65% |
| CN(c1ccccc1)c1nc(N)c([N+](=O)[O-])c(N2CCCC2)n1 |  | inconclusive: -111% |
| Cc1cc(C)c(C)c(S(=O)(=O)N2CCC(C(=O)NCCCN3CCOCC3)CC2)c1C |  | inconclusive: 5.61% |
| Oc1[nH]c2ccccc2c1C1=NCCCC1 | inconclusive: 2.59 µM [activator, partial curve] |  |
| CC(Sc1nc(C(C)(C)C)cc(-c2ccccc2)c1C#N)C(=O)Nc1ccccc1 (centres undefined) |  | inconclusive: 3.31% |
| Cc1ccc(C)c(-n2ccnc2SCC(=O)Nc2cccc(S(=O)(=O)NC3=NCCC3)c2)c1 | inconclusive: 29.1 µM [falling, single point] |  |

For convenience, 4 of the compounds above.

| SMILES | Potency | lipid storage change, negative = inhibition |
| --- | --- | --- |
| COC(=O)c1cc(Br)c(=O)n(CCN2CCCCC2)c1 |  | inconclusive: -9.65% |
| CCc1nc2ccccc2n(CCOCCOCCn2c(=O)c(CC)nc3ccccc32)c1=O | inconclusive: 0.731 µM [activator, full curve, poor fit] |  |
| O=C(Nc1cccc(Br)c1)c1ccc2c(c1)SC1=NS(=O)(=O)CCN12 | inconclusive: 6.51 µM [falling, single point] |  |
| COC(=O)c1nn(-c2ccccc2)c(=O)cc1Sc1ccc(Cl)cc1 |  | inconclusive: -1.65% |

Next part

| SMILES | Potency | lipid storage change, negative = inhibition |
| --- | --- | --- |
| O=C(Nc1ccc(Cl)cn1)C1CCCN1S(=O)(=O)c1cccc2ccccc12 (centres undefined) |  | inconclusive: 40.2% |
| COc1ccccc1NC(=O)Cn1cnc2sc(C(=O)Nc3cc(OC)c(OC)c(OC)c3)c(C)c2c1=O | inconclusive: 29.1 µM [activator, single point] |  |
| CCOc1ccc2nc(NC(=O)/C=C/c3ccc4c(c3)OCO4)sc2c1 | inconclusive: 20.6 µM [activator, single point] |  |
| C=CCN1CC(c2nc3ccccc3n2Cc2ccccc2)CC1=O (centres undefined) |  | inconclusive: 38.6% |
| Cc1ccc(S(=O)(=O)Nc2nnc(CC(C)(C)C)s2)cc1 |  | inactive |
| CN(Cc1ccccc1)C(=O)c1[nH]cnc1C(=O)NCCCCCNC(=O)OC(C)(C)C |  | inconclusive: -8.65% |
| CC(C)(C)NCCOCCOc1ccc(Cl)cc1C(C)(C)C | inconclusive: 0.517 µM [falling, full curve] |  |
| Cc1ccnc(NC(=O)CCS(=O)(=O)c2ccccc2)c1 | inconclusive: 2.59 µM [activator, partial curve, poor fit] |  |
| CCOC(=O)c1ccccc1NC(=O)CC(C)CC(=O)O (centres undefined) |  | inconclusive: -31.8% |
| CCN1CCN(Cc2ccc(NC(=O)c3ccc(C)c(/C=C/c4cnc(Nc5cc(N6CCNCC6)nc(C)n5)cn4)c3)cc2C(F)(F)F)CC1 | active: 18.4 µM |  |
| CCOC(=O)c1c(NC(=O)COC(=O)Cc2ccccc2[N+](=O)[O-])sc(C(=O)N(C)C)c1C |  | inconclusive |
| O=C(CCN1CCN(c2ccccc2)CC1)NNC(=O)Cc1c(F)cccc1Cl |  | inconclusive |
| Cc1c(C(=O)OCC(=O)N2CC(C)CC(C)C2)oc2ccccc12 (centres undefined) |  | inconclusive |
| COc1ccc(C(=O)NN2C(=O)C3C4C=CC(O4)C3C2=O)cc1 (centres undefined) |  | inconclusive: 41.5% |
| COc1ccc(OC)c(C(=O)NC(CC(N)=O)c2ccc(N3CCC(N4CCCCC4)CC3)c([N+](=O)[O-])c2)c1 (centres undefined) | inconclusive: 5.8 µM [falling, single point] |  |
| CCc1ccc(CNC(=O)C2CCCN(c3nnc(C)c4c(C)n(-c5ccccc5)nc34)C2)cc1 (centres undefined) |  | inconclusive: -72.8% |
| CCOC(=O)Cc1csc(NC(=O)CSc2nnnn2-c2ccc(C)cc2C)n1 |  | inconclusive: -7.06% |
| COc1ccc(/C=C2\SC(=S)N(CCC(=O)NCCc3ccc(O)cc3)C2=O)cc1 |  | inconclusive: 75.3% |
| Cc1ccc2cc3c(N)c4c(C)ccc(C)c4nc3nc2c1 |  | inconclusive: 11.1% |
| CC(C)(C)c1ccc(NC(=O)CC2(C(F)(F)F)OCCO2)cc1 | inconclusive: 9.2 µM [cytotoxic, partial curve] |  |
| COc1ccc(C2(C)NC(=O)N(CC(=O)Nc3ccc4ccccc4c3)C2=O)cc1OC (centres undefined) |  | inconclusive |
| c1ccc(CC2CCN(c3ncnc4sccc34)CC2)cc1 |  | inconclusive: 26.3% |
| Cc1ccc(NC(=O)NCc2cccnc2)cc1 | inconclusive: 0.82 µM [falling, single point] |  |
| CCOc1ccc(NC(=O)c2cccc(NC(C)=O)c2)cc1S(=O)(=O)N1CCCC1 | inconclusive: 20.6 µM [activator, partial curve] |  |
